# Experimental data from PubChem BioAssay AID2685 (National Center for Advancing Translational Sciences (NCATS), 2010).
# The other results are listed elsewhere or left out. These are further read-outs of the screen, such as a control signal, another cell line or another target. No call is given for them. Compounds called inactive in the main read-out are mostly missing here. The note in brackets gives the kind of curve behind each potency; many fits are weak.
# Experiment: qHTS Assay for Lipid Storage Modulators in Drosophila S3 Cells;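 as to cell number change: cells counted by Cell Tracker Red CMTPX staining in the red channel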
# Settings: BODIPY lipid droplet fluorescence, 18-24 h; for cell number change: measured here: cell count max response, cells fed with added oleic acid
# Method in brief: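 Laser-scanning cytometry quantifies lipid droplet accumulation (500–530 nm total intensity; droplet/cell object ratio) in oleic acid-fed (400 uM added) Drosophila S3 cells treated with a concentration series. 20 uM Triacsin C defined 100% inhibition.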
# [1] = measured here: lipid fluorescence (Fed channel) AC50, cells fed with added oleic acid
# [2] = measured here: cell number channel AC50, cells fed with added oleic acid
smiles,measurement,setting,value
COc1ccc(C)cc1NC(=O)c1ccc(OC(F)F)cc1,cell number change,,-11.1%
same,AC50,[1],"9.2 µM [rising, partial curve]"
Cc1cc(C)cc(NC(=O)C2CCN(S(C)(=O)=O)CC2)c1,cell number change,,1.09%
COc1ccc(C(=O)Nc2ccc(C(=O)Nc3cccc(C)c3)cc2)cc1,cell number change,,-3.64%
same,AC50,[1],"0.206 µM [rising, full curve]"
Cc1ccn(CC(=O)NC2CC(C)(C)Cc3c2cnn3-c2ccc(F)cc2)n1 (configuration not stated),cell number change,,24.9%
same,AC50,[1],"29.1 µM [rising, single point]"
Cc1cccc(NC(=O)CN(c2ccc(F)cc2)S(C)(=O)=O)c1,cell number change,,-57.5%
same,AC50,[2],"4.61 µM [falling, partial curve]"
same,AC50,[1],"7.31 µM [falling, partial curve]"
O=C(Cc1ccc(Cl)cc1)NC1CCCCCC1,AC50,[1],"6.51 µM [rising, single point]"
CCC(=O)OCC(=O)N=c1sccn1Cc1ccc(C)cc1,cell number change,,-1.08%
same,AC50,[1],"5.8 µM [rising, full curve]"
O=C(Cc1ccc2c(c1)CCCC2)Nc1ccccc1Cl,cell number change,,-17.2%
same,AC50,[1],"1.3 µM [falling, full curve, poor fit]"
Cc1cn2c(nc1=O)OC1CC2OC1CO (configuration not stated),cell number change,,-11.1%
same,AC50,[1],"0.00461 µM [falling, full curve, poor fit]"
CCOC(=O)C1CCCN(C(c2ccccn2)c2c(C)[nH]c3ccccc23)C1 (configuration not stated),cell number change,,-4.97%
same,AC50,[1],"1.3 µM [falling, full curve]"
COc1cc(C(C[N+](=O)[O-])c2c(-c3ccccc3)cc3ccccn23)cc(OC)c1OC (configuration not stated),cell number change,,84.7%
same,AC50,[2],"4.11 µM [rising, full curve]"
same,AC50,[1],"5.8 µM [rising, single point]"
COc1ccccc1NC(=O)C(C)NS(=O)(=O)c1ccccc1 (configuration not stated),cell number change,,-7.26%
COc1ccc(C(=O)c2ccc(Cl)c([N+](=O)[O-])c2)cc1,cell number change,,-21.9%
same,AC50,[1],"1.16 µM [falling, full curve]"
O=C(NN1c2ccccc2CCc2ccccc21)c1ccccc1Br,cell number change,,-29%
Cc1ccc(C2CC(c3cccs3)=NN2C(=O)CSc2nc(=O)n3cc(C)ccc3n2)cc1 (configuration not stated),cell number change,,-21.3%
Cc1cccc(C)c1NC(=O)COC(=O)c1ccc([N+](=O)[O-])o1,AC50,[2],"0.00461 µM [rising, full curve, poor fit]"
same,AC50,[1],"0.00461 µM [rising, full curve, poor fit]"
CC(C)CNC(=O)c1noc2c1CCCC2,cell number change,,-7.95%
same,AC50,[1],"6.51 µM [falling, single point]"
CCOC(=O)Cc1csc(NC(=O)c2ccc(N3CCOCC3)cc2[N+](=O)[O-])n1,cell number change,,5.83%
same,AC50,[2],"6.51 µM [rising, single point]"
same,AC50,[1],"2.91 µM [rising, partial curve]"
Cc1ccc(CCNC(=O)c2sc3nc4n(c(=O)c3c2C)CCC4)cc1,cell number change,,-2.39%
same,AC50,[1],"29.1 µM [falling, single point]"
COc1ccc(Cl)cc1C(=O)OCC(=O)Nc1cccnc1Cl,cell number change,,-13.1%
O=C(OCC(=O)N1CCc2ccccc21)c1nc(Cl)ccc1Cl,cell number change,,34.3%
same,AC50,[1],"18.4 µM [rising, single point]"
CCOCCOCN(C#N)c1nc(OC)nc(N(C)C)n1,cell number change,,12.6%
same,AC50,[1],"7.31 µM [rising, partial curve]"
NC(=O)C1CC(O)CN1c1nc(CN2CCOCC2)nc2scc(-c3ccccc3)c12 (configuration not stated),cell number change,,-3.16%
same,AC50,[1],"0.164 µM [falling, full curve, poor fit]"
O=C(CCNC(=O)c1ccccc1Cl)Nc1cccc(S(=O)(=O)N2CCCC2)c1,cell number change,,8.97%
CCCc1nnc(NC(=O)C2CCN(C(=O)c3ccco3)CC2)s1,AC50,[2],"0.00461 µM [rising, full curve, poor fit]"
Cc1ncsc1CCOC(=O)c1ccccc1,AC50,[2],"0.082 µM [rising, single point]"
same,AC50,[1],"0.116 µM [rising, single point]"
CCOC(=O)c1nn(-c2ccc(C)cc2)c(=O)cc1OCC(=O)Nc1cccc(OC)c1,AC50,[2],"4.61 µM [rising, partial curve]"
CCN1C(=O)[C@H]2[C@@H](c3ccc(OC)cc3)N3C(=O)CN(CCOC)C(=O)[C@@]3(C)[C@H]2C1=O,cell number change,,12%
same,AC50,[1],"29.1 µM [rising, single point]"
CC(C(=O)NC1=NCCS1)(C(F)(F)F)C(F)(F)F,cell number change,,17.3%
COc1ccc(N(CC(=O)NCCOc2ccccc2)S(=O)(=O)c2ccc(C)cc2)cc1,cell number change,,-1.28%
same,AC50,[1],"0.0082 µM [falling, full curve, poor fit]"
N#Cc1cc(-c2ccccc2)[nH]c1-c1nccc2ccccc12,cell number change,,-5.12%
same,AC50,[1],"0.651 µM [falling, single point]"
Cc1cccc(C)c1N1CCN(S(=O)(=O)N2CCOCC2)CC1,AC50,[2],"3.66 µM [rising, single point]"
CCCC(c1nnnn1Cc1ccc(OC)cc1)N1CCN(c2ccccc2)CC1 (configuration not stated),cell number change,,4.64%
same,AC50,[1],"6.51 µM [rising, single point]"
CC(C)c1ccc(S(=O)(=O)N2CCN(CC(=O)Nc3ccc4c(c3)OCO4)CC2)cc1,cell number change,,-16.3%
same,AC50,[1],"0.164 µM [rising, full curve, poor fit]"
O/N=C(\c1ccccc1)C(O)c1ccccc1 (configuration not stated),cell number change,,-21.8%
CN(C)S(=O)(=O)c1cccc(C(=O)Nc2n[nH]c(C(F)(F)F)n2)c1,cell number change,,38.5%
same,AC50,[2],"29.1 µM [rising, single point]"
same,AC50,[1],"0.0058 µM [rising, full curve, poor fit]"
O=C(NCCC(=O)N1CCN(c2ccc(F)cc2)CC1)c1ccco1,cell number change,,17.3%
COCCn1c(SCC(=O)Nc2cccnc2Cl)nc2ccccc2c1=O,cell number change,,31.1%
same,AC50,[2],"0.00731 µM [rising, full curve, poor fit]"
Cc1noc(C)c1-c1ccc2ncnc(NC(C)c3ccco3)c2c1 (configuration not stated),cell number change,,-4.2%
same,AC50,[2],"0.326 µM [falling, partial curve]"
same,AC50,[1],"0.517 µM [falling, partial curve]"
CCN(CC(=O)NC1CCS(=O)(=O)C1)C(=O)/C=C/c1cccs1 (configuration not stated),cell number change,,-4.88%
same,AC50,[2],"0.731 µM [rising, single point]"
O=C(Nc1nncs1)c1cccc(S(=O)(=O)N2CCCC2)c1,cell number change,,5.1%
Cc1ccccc1N1CCN(C(=O)c2cc(C3CC3)nn2-c2ccccc2)CC1,cell number change,,-14.8%
O=C(Nc1ccc(Cl)cc1)c1ccc2ncsc2c1,cell number change,,12%
same,AC50,[2],"0.00461 µM [rising, full curve, poor fit]"
same,AC50,[1],"20.6 µM [rising, single point]"
CC(CC(=O)Nc1nc2ccccc2[nH]1)c1ccccc1 (configuration not stated),cell number change,,-40.8%
same,AC50,[1],"1.84 µM [rising, partial curve]"
c1ccc2c(c1)[nH]c1c(N3CCCC3)ncnc12,cell number change,,-13.4%
COc1ccc(C(C(=O)NC2CCCCC2)N(C(=O)CCl)c2ccc(Cl)cc2)cc1 (configuration not stated),cell number change,,3.84%
same,AC50,[1],"16.4 µM [falling, partial curve, poor fit]"
Cc1cc(C(=O)NCCCC(=O)O)c(C)o1,cell number change,,-13.6%
same,AC50,[1],"23.1 µM [falling, single point]"
Cc1ccc(N/C=C(\[N+](=O)[O-])S(=O)(=O)c2ccccc2)cc1,cell number change,,-42.6%
same,AC50,[2],"29.1 µM [falling, single point]"
same,AC50,[1],"29.1 µM [falling, single point]"
Cc1ccc(NS(=O)(=O)c2ccccc2)c2c1CC(C)(C)O2,cell number change,,55.5%
NCCCCCc1nnc(SCc2ccc(Cl)cc2Cl)o1,cell number change,,46.7%
same,AC50,[2],"32.6 µM [rising, single point]"
same,AC50,[1],"20.6 µM [rising, partial curve]"
O=C(Nc1ccc(SC(F)F)cc1)C1=CC=CN2CCS(=O)(=O)N=C12,cell number change,,-16.9%
same,AC50,[1],"1.3 µM [rising, full curve]"
Cc1ccccc1CNC(=O)CCCn1ncn2c(cc3occc32)c1=O,cell number change,,-26.9%
same,AC50,[1],"1.46 µM [rising, partial curve]"
COc1ccccc1N(CC(=O)NC1CCCCC1)S(C)(=O)=O,cell number change,,41.2%
same,AC50,[2],"11.6 µM [rising, partial curve, poor fit]"
same,AC50,[1],"2.06 µM [falling, full curve, poor fit]"
CCn1nc(C)cc1C(=O)N1CCCC(CCC(=O)NCc2ccccc2F)C1 (configuration not stated),cell number change,,-40.9%
same,AC50,[2],"18.4 µM [falling, partial curve]"
same,AC50,[1],"16.4 µM [falling, partial curve, poor fit]"
CCC(C)(C)NC(=O)C(c1ccccc1F)N(Cc1ccco1)C(=O)Cn1nnc2ccccc21 (configuration not stated),cell number change,,-49.4%
same,AC50,[2],"3.66 µM [falling, partial curve]"
same,AC50,[1],"0.13 µM [falling, full curve, poor fit]"
OC(CN1CCN(c2ccc(C(F)(F)F)cn2)CC1)c1ccccc1 (configuration not stated),cell number change,,-30.2%
same,AC50,[2],"8.2 µM [falling, partial curve]"
same,AC50,[1],"8.2 µM [falling, partial curve, poor fit]"
Cc1cc(C)c(S(=O)(=O)Nc2ccc(O)cc2)c(C)c1,cell number change,,56.7%
same,AC50,[2],"16.4 µM [rising, partial curve, poor fit]"
Cn1cc(CNCc2ccc(OC(F)(F)F)cc2)c(-c2ccc3c(c2)OCCO3)n1,cell number change,,-57.7%
same,AC50,[2],"5.8 µM [falling, partial curve]"
same,AC50,[1],"6.51 µM [falling, full curve]"
Cc1nc(N2CCN(C(=O)c3ccco3)CC2)c2c3c(sc2n1)CCC3,cell number change,,-22%
COc1ccc(-c2nc(NC(=O)C3CC(=O)N(c4ccc5c(c4)OCCO5)C3)sc2C)cc1 (configuration not stated),cell number change,,-18.5%
same,AC50,[1],"29.1 µM [falling, single point]"
COc1ccc(/C=C2\SC(=S)N(CCCC(=O)Nc3cccc(C(=O)O)c3)C2=O)cc1OC,cell number change,,7.57%
same,AC50,[1],"4.61 µM [rising, single point]"
